# The campaign covered roughly 340,000 compounds. About 170 (0.05%) were called active. Inconclusive results, whose numbers are uncertain, are shown with a selection of clear calls. The call rests on the fitted dose curve; in most records, active means well fitted inhibition curve with a large enough effect in the signal ratio, with a control signal flat (not every such curve was filed as active); inconclusive means small, poorly fitted or top-dose-only effect, or effect the other way, or a change in a side signal; inactive means flat fitted curve, though single readings scatter; the % refers to the signal ratio. Potencies beside an inconclusive call are fits to weak or partial responses and may not hold up.
# Assay: qHTS Assay to Find Inhibitors of Chronic Active B-Cell Receptor Signaling;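 on activity change, negative = inhibition: plate controls were basal doxycycline-induced cells for no effect and cells given 10 µM MG132 for full effect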
# Conditions: ABC-DLBCL IkBa-CBG/CBR reporter, luminescence ratio (green luciferase fused to IkBa over red control in TMD8 lymphoma cells), 4 h; activity change, negative = inhibition: at 46.1 µM (top of the series) unless noted
# Outline: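 TMD8 ABC-DLBCL cells carrying doxycycline-inducible green luciferase fused to IkappaBalpha plus unfused red luciferase were exposed to compounds (up to 46 uM) for 4 hrs at 37C. Activity came from the overlap-corrected green/red luminescence ratio.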
# Potency means the concentration at half of the fitted maximal effect.
Structure (SMILES),"activity change, negative = inhibition",Potency
CC1(CC(=O)N/N=C/c2ccc(-c3ccc(Cl)cc3)o2)OCCO1,inconclusive: 3.95%,–
O=C(C1=C(O)C(=O)N(CCCN2CCOCC2)C1c1ccccn1)c1cccs1 (stereo not given),inconclusive: 8.44%,–
O=C(CN1C(=O)NC2(CCCC2)C1=O)Nc1ccccc1N1CCCCC1,inconclusive: 3.34%,–
COc1ccccc1OCCCC(=O)Nc1ccc2c(c1)OCCO2,inconclusive: -14.1%,–
O=C(Cc1cccs1)N/N=C\c1ccc([N+](=O)[O-])s1,inactive: 3.86%,–
CCCNC(=O)COC(=O)/C=C/c1cccc(F)c1,inactive: 4.52%,–
CN(CC(=O)Nc1ccc(Cl)cc1)C(=O)c1ccc(S(=O)(=O)Nc2ccccc2)cc1,inconclusive: -10.3%,–
Cc1ccc(NC(=O)C2OCCc3ccccc32)cc1C (stereo not given),inconclusive: 10.9%,–
COC(=O)N1CC(c2ccccc2)CC1=O (stereo not given),–,"inconclusive: 1.3 µM [rising, full curve, poor fit]"
CCOc1ccc(-c2nnc(SCC(=O)NCc3ccccc3)nc2-c2ccc(OCC)c(OC)c2)cc1OC,inactive: -14.9%,–
Cc1nnc(SCc2nnc(-c3ccccc3)o2)n(N)c1=O,inconclusive: 6.08%,–
Cc1cnc(=O)[nH]c1SCC(=O)c1ccc(F)cc1,–,"inconclusive: 0.316 µM [rising, full curve, poor fit]"
Cc1ccccc1C(C)NC(=O)COC(=O)Cn1cc(C(F)(F)F)ccc1=O (stereo not given),inconclusive: 9.12%,–
O=C(Nc1ccccc1)C1=C[C@H](c2csc3ccccc23)C[C@H](OCc2ccc(CO)cc2)O1,–,"inconclusive: 11.2 µM [falling, partial curve, poor fit]"
CCOC(=O)N1CCC(NC(=O)c2ccccc2C(=O)O)CC1,inconclusive: 4.46%,–
Cc1cc(=O)oc2cc(NC(=O)c3cccc(F)c3)ccc12,inconclusive: 1.88%,–
COc1cccc(-c2nnc(SCC(=O)Nc3ccc4c(c3)OCCO4)n2Cc2ccco2)c1,inconclusive: -7.03%,–
COc1cc(C2C3C(=O)N(Cc4ccccc4)C(=O)C3ON2c2ccccc2)cc(OC)c1OC (stereo not given),inconclusive: 1.35%,–
O=C1N/C(=C\c2nc3ccccc3s2)c2ccccc21,inactive: -2.49%,–
CC(=O)Nc1cccc(Oc2nc(-c3ccccn3)nc3ccccc23)c1,–,"inconclusive: 11.2 µM [falling, partial curve, poor fit]"
Cc1nc(NCCc2ccccc2)c2nnn(Cc3ccccc3)c2n1,inconclusive: 7.83%,–
Oc1ccccc1N=N/C(=N/Nc1ccccc1O)c1ccccc1,inactive: -11.7%,–
COc1ccc(OC)c(CCNC(=O)Cn2nc(C)c3c(C)n(-c4ccc(C)cc4)nc3c2=O)c1,inactive: 3.84%,–
O=C(c1ccc(F)cc1)N1CCC(c2ccccc2)C1 (stereo not given),–,"inconclusive: 28.2 µM [falling, single point]"
O=c1c2ccccc2oc2nc(-c3cccs3)n(CCc3ccccc3)c(=O)c12,–,"inconclusive: 23.1 µM [falling, partial curve]"
NC(=O)c1ccc(NC(=O)CS(=O)(=O)c2cn(CC(=O)N3CCCC3)c3ccccc23)cc1,inconclusive: 1.18%,–
Cc1sc2c(c1C)C(=O)NC(c1cccc(O)c1)N2 (stereo not given),inconclusive: -10.8%,–

# Look-ups from the list:
# O=C(C1=C(O)C(=O)N(CCCN2CCOCC2)C1c1ccccn1)c1cccs1 (stereo not given) | activity change, negative = inhibition: inconclusive: 8.44%
# CCOc1ccc(-c2nnc(SCC(=O)NCc3ccccc3)nc2-c2ccc(OCC)c(OC)c2)cc1OC | activity change, negative = inhibition: inactive: -14.9%
# O=C(Nc1ccccc1)C1=C[C@H](c2csc3ccccc23)C[C@H](OCc2ccc(CO)cc2)O1 | Potency: inconclusive: 11.2 µM [falling, partial curve, poor fit]
# Oc1ccccc1N=N/C(=N/Nc1ccccc1O)c1ccccc1 | activity change, negative = inhibition: inactive: -11.7%
# COc1cc(C2C3C(=O)N(Cc4ccccc4)C(=O)C3ON2c2ccccc2)cc(OC)c1OC (stereo not given) | activity change, negative = inhibition: inconclusive: 1.35%
# NC(=O)c1ccc(NC(=O)CS(=O)(=O)c2cn(CC(=O)N3CCCC3)c3ccccc23)cc1 | activity change, negative = inhibition: inconclusive: 1.18%

# Next part:

Structure (SMILES),"activity change, negative = inhibition",Potency
CC1CCCCN1S(=O)(=O)c1ccc(S(=O)(=O)N(Cc2ccccc2)Cc2ccco2)cc1 (stereo not given),inconclusive: 28.3%,–
COc1cc(OC)cc(C(=O)Nc2ccc3c(c2)N(C2CCCC2)C(=O)c2ccccc2S3)c1,inconclusive: -12.1%,–
Cc1nc(Nc2nc(CSc3nc4ccccc4[nH]3)cc(=O)[nH]2)nc2ccccc12,inconclusive: 9.98%,–
COc1cccc(CNC(=O)CCC2CCCN(C(=O)c3cc(C)on3)C2)c1 (stereo not given),–,"inconclusive: 0.1 µM [falling, full curve, poor fit]"
CC(c1ccccc1)N1C(=O)/C(=C/c2ccncc2)SC1=S (stereo not given),inconclusive: 2.67%,–
O=C(O)CCc1ccc(-c2cccs2)n1NC(=O)c1ccccc1Br,inconclusive: -4.59%,–
CC(=O)c1cccc(NC(=O)N2CCCC2C(=O)NCc2ccc(C)cc2)c1 (stereo not given),inconclusive: 6.86%,–
COc1ccc(OC)c(C2(O)CSC(=Nc3cccnc3)N2Cc2ccco2)c1 (stereo not given),–,"inconclusive: 35.5 µM [falling, single point]"
COc1ccc(/C=C2\SC(=S)N(CCC(=O)NC3C=CS(=O)(=O)C3)C2=O)cc1 (stereo not given),inconclusive: -184%,–
COC(=O)c1ccc(OCC(O)CN2CCN(C(=O)c3ccco3)CC2)cc1 (stereo not given),inactive: 2.7%,–
O=C(Nc1ccc(NC(=O)N2CCN(c3ccccc3O)CC2)cc1)N1CCN(c2ccccc2O)CC1,inactive: 6.02%,–
Cc1ccc(-c2nnc(SCC(C)C)n2C)cc1,inconclusive: 13.4%,–
Nc1ccc2c(c1)OCCOCCOCCOCCOCCO2,inconclusive: 4.07%,–
COc1ccc(OC)c(/C=N/NC(=O)c2cc3c(OC)cc(OC)cc3[nH]2)c1,inconclusive: -18.4%,–
O=C(COc1cccnc1[N+](=O)[O-])c1c[nH]c2ccccc12,–,"inconclusive: 25.1 µM [falling, single point]"
C/C(=N\NC(=O)c1ccc(F)cc1)c1cccc(NC(=O)c2ccco2)c1,–,"inconclusive: 25.1 µM [falling, single point]"
O=C(Nc1ccc(N2CCC(c3ccccc3)C2)c(C(=O)O)c1)c1ccc(Cl)cc1 (stereo not given),–,"inconclusive: 35.5 µM [falling, single point]"
c1ccc(N2CCN(c3cnc4ccccc4n3)CC2)cc1,–,"inconclusive: 23.1 µM [falling, single point]"
CCOc1ccc(NC(=O)N(c2ccccc2)c2ccccc2)cc1,inconclusive: 0.0183%,–
Cc1cccc(/C=C(\C#N)C(=O)Nc2ccccn2)c1,inconclusive: -2.75%,–
CC1=CC2(O)OCCN(CCO)C2=CC1=O (stereo not given),–,"inconclusive: 5.62 µM [falling, single point]"
O=C(c1cc2cc(F)ccc2[nH]1)N1CCCC(Nc2ccc(F)cc2)C1 (stereo not given),inactive: -7.17%,–
Cn1c(SCC(=O)c2ccccc2)nnc1C1CC1,–,"inconclusive: 35.5 µM [falling, partial curve, poor fit]"
CC1CCC(NC(=O)CC2Oc3ccccc3NC2=O)CC1 (stereo not given),inconclusive: -15.3%,–
CCC(=O)Oc1ccc(C/C(=N\O)c2ccc(O)cc2O)o1,–,"inconclusive: 18.4 µM [falling, partial curve]"
CCn1c(=O)c(C(=O)Nc2ccccc2F)c(O)c2ccccc21,–,"inconclusive: 3.16 µM [falling, partial curve, poor fit]"
Cc1nnc2sc(SCC(=O)N3CCC(C)CC3)nn2c1=O,inconclusive: 0.235%,–

Structure (SMILES),"activity change, negative = inhibition",Potency
O=C(CSc1nnc(-c2ccncc2)n1Cc1ccco1)Nc1ccccc1Cl,inactive: -4.14%,–
Cc1ccncc1C(N)=O,inconclusive: 1.04%,–
Cc1cc(C)n(-c2ccc(C(=O)NC(C)C)cc2)n1,–,"inconclusive: 12.6 µM [rising, partial curve, poor fit]"
COCCCNC(=O)CCc1nc(-c2ccccc2)no1,inconclusive: 19.7%,–
COCCn1c(COc2ccc(OC)cc2)nc2ccccc21,inconclusive: 11.7%,–
COc1ccc(NC(=O)/C(N=Nc2ccc(Cl)c(S(=O)(=O)Nc3ccc(Cl)cc3)c2)=C(\C)O)cc1,inactive: 1.42%,–
O=C(Nc1cnn(Cc2ccc(Cl)c(Cl)c2)c1)c1nc2ncccn2n1,inconclusive: -4.35%,–
O=NNc1nc2ccccc2n1Cc1ccccc1,inconclusive: -12.1%,–
CCOc1ccc(NC(=S)N(CCc2c(C)[nH]c3ccccc23)Cc2cccnc2)cc1,inconclusive: -12.3%,–
CCc1ccc(Nc2n[n+](-c3ccccc3)c(-c3ccc(OCc4ccccc4)cc3)s2)cc1,–,"inconclusive: 12.6 µM [falling, partial curve, poor fit]"
COc1cc(/C=C2/SC(=O)NC2=O)ccc1Oc1ccc([N+](=O)[O-])cc1[N+](=O)[O-],inactive: 9.68%,–
CSc1ncccc1C(=O)OCC(=O)NCCc1ccccc1,inconclusive: 1.08%,–
CCCCC(=O)N1CCN(c2nc(-c3ccc(F)cc3)cs2)CC1,inactive: 1.51%,–
CC(Sc1nc2ccc(Br)cc2[nH]1)C(=O)O (stereo not given),inconclusive: 11.2%,–
CN1CCN(c2ccc(-c3cccc(NC(=O)COc4ccc(Cl)cc4)c3)nn2)CC1,–,"inconclusive: 25.9 µM [falling, partial curve, poor fit]"
Cc1ccc(Sc2c(C(=O)Nc3ccc(F)cc3F)c(C(F)(F)F)nn2C)cc1,inactive: 13.1%,–
O=C(NCCCCCCNC(=O)c1ccc(Br)s1)c1ccc(Br)s1,inconclusive: 7.7%,–
COc1ccccc1OCCCCCc1c(C)n[nH]c1C,inactive: 0.474%,–
CS(=O)(=O)c1ccc2nc(NC(=O)CCNC(=O)c3ccc(Cl)cc3)sc2c1,inconclusive: -4.56%,–
O=S(=O)(c1ccc2c(c1)OCCO2)N1CCN(S(=O)(=O)c2ccc3c(c2)OCCO3)CC1,–,"inconclusive: 25.9 µM [falling, single point]"
CCN1CCN(c2ccc(NC(=O)c3cc4ccccc4cc3OC)cc2C)CC1,inconclusive: -8.79%,–
COCCNCc1ccccc1[N+](=O)[O-],inconclusive: -12.8%,–
O=C(O)C1CCN(C(=O)c2ccc3c(c2)OCO3)CC1,inconclusive: 9.18%,–
CC(C(=O)Nc1ccc2c(c1)OCO2)c1ccc([N+](=O)[O-])cc1 (stereo not given),inconclusive: -11.7%,–
O=[N+]([O-])c1nn(-c2ccc3c(c2)OCCO3)n(O)c1=NC1CCN(Cc2ccccc2)CC1,inactive: -0.522%,–
O=C(NNc1nc(-c2ccccc2)cs1)c1ccc(F)cc1,–,"inconclusive: 35.5 µM [falling, single point]"

# From PubChem BioAssay AID493014 (National Center for Advancing Translational Sciences (NCATS), 2011)
